In the supplement of paper PMC12823440, “Inhibitors supercharge kinase turnover through native proteolytic circuits” (Nature, 2025):
Where a name gives a salt, the structure may show the parent alone. This is one part of the list. The calls rarely recur for the same compound in another form.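 Kinases were expressed as nanoluciferase fusions in K562 cells and luminescence was read every 4 h between 2 and 18 h as percent of control, DMSO set to 100% and a positive control to 0%. A time point counts as decreased when the signal drops significantly (2 sigma). The hit call is the authors' own, does not follow from the count of time points alone, and its rule is not shown.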

The chains behind the UniProt entries cited, without tags or fusion partners. Where a name states a change or a piece, a line headed by the entry shows the natural chain unless it says otherwise.
UniProt Q13555: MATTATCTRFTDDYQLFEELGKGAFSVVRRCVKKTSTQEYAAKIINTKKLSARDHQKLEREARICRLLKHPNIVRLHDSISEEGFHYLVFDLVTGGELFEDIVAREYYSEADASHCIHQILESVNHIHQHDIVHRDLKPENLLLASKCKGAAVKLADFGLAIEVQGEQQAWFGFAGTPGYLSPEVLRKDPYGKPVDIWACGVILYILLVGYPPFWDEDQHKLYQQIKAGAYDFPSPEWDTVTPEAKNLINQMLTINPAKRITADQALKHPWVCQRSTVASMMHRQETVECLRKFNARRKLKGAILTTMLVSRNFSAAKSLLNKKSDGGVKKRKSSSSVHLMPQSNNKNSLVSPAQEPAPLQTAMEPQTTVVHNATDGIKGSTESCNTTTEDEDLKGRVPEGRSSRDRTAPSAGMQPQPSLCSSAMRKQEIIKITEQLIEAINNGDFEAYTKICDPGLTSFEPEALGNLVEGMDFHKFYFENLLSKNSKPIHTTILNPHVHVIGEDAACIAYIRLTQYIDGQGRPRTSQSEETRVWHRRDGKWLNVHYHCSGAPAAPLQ
UniProt Q15131: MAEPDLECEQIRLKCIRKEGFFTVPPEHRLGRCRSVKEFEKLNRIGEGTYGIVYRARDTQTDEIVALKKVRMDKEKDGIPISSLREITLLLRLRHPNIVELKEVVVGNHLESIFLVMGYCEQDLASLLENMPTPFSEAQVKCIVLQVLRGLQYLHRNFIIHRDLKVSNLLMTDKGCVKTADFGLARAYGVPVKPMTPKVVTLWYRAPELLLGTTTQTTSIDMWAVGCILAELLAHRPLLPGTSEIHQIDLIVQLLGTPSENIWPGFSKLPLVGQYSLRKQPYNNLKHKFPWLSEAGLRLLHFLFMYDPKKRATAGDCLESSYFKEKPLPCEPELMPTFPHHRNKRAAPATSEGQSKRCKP
UniProt Q00526: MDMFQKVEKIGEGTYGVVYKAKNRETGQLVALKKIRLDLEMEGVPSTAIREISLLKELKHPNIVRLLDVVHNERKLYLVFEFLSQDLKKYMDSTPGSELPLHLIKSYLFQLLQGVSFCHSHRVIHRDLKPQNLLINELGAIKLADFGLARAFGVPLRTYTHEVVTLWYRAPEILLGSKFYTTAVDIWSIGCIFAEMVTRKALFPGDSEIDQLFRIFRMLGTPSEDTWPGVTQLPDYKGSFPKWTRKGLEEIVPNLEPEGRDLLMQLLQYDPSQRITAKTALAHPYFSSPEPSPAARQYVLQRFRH
UniProt Q00535, whole entry, looked up: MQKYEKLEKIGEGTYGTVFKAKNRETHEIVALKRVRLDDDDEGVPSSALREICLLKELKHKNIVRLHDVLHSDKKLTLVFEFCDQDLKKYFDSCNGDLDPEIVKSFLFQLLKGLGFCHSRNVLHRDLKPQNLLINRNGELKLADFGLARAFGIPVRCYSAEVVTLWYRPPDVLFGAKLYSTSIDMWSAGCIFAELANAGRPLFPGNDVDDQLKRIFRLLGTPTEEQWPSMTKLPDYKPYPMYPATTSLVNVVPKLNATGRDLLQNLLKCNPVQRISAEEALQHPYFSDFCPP
UniProt Q00534, whole entry: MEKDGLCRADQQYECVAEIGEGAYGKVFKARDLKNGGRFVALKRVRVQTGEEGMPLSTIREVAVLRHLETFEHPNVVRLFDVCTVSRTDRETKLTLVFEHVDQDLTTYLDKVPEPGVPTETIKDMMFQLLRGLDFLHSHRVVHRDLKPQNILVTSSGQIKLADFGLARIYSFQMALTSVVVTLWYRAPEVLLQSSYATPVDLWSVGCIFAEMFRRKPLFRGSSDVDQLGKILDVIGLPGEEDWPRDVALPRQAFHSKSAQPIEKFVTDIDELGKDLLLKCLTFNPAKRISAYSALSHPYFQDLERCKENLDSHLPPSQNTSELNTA
UniProt O96017, whole entry: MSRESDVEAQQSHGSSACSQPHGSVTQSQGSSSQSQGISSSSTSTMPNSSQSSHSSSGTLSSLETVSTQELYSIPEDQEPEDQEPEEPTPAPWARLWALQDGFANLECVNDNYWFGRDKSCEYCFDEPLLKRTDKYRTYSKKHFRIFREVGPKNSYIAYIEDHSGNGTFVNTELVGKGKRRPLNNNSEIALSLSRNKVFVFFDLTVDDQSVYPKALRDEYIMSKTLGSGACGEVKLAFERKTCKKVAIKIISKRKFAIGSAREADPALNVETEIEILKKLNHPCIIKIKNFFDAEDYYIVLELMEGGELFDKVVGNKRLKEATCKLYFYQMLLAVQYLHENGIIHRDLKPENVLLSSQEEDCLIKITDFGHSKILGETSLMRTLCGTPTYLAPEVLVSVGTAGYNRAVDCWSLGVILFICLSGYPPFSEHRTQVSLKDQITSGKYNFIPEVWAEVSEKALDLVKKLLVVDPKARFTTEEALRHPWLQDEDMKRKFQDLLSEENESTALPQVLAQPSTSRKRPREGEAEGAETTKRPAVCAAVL
UniProt P07333, whole entry: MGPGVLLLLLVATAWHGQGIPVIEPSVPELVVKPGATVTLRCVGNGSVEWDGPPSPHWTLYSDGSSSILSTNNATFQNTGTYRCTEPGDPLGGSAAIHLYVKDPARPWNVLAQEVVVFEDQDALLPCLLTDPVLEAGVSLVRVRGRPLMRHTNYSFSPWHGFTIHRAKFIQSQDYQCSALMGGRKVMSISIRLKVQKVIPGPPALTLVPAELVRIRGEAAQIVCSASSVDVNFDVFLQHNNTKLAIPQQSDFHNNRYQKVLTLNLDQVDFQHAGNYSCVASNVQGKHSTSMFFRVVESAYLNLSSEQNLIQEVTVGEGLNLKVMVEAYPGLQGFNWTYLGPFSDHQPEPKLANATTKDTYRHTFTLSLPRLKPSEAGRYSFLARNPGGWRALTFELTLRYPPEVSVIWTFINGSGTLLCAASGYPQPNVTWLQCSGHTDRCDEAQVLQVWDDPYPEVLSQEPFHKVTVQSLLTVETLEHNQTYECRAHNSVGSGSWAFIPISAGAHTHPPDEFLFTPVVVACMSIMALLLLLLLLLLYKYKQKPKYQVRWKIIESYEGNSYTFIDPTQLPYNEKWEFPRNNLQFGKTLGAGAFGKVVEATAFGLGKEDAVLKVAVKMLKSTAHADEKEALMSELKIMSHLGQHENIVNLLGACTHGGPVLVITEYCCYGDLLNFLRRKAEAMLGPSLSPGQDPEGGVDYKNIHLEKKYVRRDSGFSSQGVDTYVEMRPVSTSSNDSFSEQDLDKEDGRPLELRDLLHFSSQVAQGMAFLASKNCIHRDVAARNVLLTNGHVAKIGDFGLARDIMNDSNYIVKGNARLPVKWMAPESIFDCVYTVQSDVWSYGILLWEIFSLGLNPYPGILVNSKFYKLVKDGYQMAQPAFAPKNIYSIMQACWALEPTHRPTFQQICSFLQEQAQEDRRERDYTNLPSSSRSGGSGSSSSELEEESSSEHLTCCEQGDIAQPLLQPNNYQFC
UniProt P48729: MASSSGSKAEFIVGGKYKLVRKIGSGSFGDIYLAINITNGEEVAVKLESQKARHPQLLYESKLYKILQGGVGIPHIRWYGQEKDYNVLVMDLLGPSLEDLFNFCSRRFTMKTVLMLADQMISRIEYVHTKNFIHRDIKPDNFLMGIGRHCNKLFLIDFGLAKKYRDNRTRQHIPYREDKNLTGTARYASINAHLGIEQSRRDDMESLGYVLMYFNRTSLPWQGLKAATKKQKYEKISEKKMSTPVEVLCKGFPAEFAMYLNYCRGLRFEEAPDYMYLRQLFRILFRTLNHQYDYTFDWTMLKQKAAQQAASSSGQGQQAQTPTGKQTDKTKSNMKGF
UniProt P48730: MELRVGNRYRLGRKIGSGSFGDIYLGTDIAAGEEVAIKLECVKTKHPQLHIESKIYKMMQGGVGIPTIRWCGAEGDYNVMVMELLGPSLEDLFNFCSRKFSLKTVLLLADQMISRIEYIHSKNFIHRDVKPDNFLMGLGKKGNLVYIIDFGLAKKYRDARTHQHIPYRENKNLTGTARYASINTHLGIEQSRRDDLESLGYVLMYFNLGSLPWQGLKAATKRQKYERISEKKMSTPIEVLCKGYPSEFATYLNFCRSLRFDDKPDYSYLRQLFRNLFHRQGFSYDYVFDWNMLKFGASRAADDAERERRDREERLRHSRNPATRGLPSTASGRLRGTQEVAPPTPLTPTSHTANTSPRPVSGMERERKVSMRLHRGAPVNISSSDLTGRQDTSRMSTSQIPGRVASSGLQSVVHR
UniProt Q08345: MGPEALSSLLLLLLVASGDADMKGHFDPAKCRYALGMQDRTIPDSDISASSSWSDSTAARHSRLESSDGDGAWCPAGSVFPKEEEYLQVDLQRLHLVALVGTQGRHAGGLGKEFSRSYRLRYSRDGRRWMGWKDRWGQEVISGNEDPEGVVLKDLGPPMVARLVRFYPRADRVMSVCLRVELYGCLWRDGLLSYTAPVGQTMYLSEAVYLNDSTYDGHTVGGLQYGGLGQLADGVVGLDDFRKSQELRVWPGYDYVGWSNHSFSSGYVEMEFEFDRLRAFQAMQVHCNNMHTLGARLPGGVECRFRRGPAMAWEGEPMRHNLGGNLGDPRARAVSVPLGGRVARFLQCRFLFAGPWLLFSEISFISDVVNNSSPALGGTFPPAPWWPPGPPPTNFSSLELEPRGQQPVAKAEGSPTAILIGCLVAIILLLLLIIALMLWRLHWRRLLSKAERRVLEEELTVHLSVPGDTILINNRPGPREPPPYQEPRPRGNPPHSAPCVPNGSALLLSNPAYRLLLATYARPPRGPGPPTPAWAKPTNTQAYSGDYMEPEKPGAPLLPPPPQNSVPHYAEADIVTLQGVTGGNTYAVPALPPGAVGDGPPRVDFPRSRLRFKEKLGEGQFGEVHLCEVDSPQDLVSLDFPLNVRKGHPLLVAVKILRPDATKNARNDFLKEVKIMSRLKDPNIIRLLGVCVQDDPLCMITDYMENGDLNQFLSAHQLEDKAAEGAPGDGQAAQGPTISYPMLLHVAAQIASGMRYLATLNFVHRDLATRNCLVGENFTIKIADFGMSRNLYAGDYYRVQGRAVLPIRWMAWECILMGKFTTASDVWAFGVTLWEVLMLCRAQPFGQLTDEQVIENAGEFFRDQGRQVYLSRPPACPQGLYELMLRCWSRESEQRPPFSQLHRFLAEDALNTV
UniProt Q9Y463, whole entry, looked up: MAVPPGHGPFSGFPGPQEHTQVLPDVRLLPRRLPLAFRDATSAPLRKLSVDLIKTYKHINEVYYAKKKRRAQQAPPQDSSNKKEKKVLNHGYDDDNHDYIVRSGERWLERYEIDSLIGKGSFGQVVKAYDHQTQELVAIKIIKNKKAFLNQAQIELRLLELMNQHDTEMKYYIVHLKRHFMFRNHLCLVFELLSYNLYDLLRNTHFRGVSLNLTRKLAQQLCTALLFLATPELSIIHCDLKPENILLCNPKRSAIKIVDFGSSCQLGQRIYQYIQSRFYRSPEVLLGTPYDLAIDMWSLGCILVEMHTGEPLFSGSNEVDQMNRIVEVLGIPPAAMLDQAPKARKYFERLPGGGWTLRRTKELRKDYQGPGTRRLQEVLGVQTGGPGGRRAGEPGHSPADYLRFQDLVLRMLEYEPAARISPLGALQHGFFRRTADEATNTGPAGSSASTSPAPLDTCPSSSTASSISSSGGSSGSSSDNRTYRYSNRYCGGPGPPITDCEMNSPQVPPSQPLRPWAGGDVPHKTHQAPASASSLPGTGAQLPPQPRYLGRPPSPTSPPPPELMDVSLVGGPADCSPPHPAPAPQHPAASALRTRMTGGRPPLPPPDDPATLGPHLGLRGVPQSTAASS
UniProt Q92630: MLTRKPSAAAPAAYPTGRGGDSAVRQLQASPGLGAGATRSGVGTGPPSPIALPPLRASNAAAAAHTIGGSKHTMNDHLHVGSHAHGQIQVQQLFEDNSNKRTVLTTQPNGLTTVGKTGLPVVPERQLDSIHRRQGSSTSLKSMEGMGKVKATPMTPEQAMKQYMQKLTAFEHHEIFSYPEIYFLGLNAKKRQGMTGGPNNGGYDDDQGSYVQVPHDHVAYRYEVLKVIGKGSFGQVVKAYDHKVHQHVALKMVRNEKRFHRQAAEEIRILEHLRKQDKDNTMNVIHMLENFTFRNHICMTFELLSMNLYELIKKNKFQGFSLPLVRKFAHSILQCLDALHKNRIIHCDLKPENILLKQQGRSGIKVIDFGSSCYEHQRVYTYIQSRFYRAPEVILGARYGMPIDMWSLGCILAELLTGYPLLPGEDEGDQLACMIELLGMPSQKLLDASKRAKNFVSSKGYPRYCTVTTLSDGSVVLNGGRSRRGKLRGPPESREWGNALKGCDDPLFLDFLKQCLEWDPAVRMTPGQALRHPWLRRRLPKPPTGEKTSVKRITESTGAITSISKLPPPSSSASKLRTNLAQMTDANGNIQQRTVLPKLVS

Tests used:
Experiment in all cases: number of time points (of 5) at which kinase-Nluc abundance scored as decreased, DMSO-normalised (count); higher = more persistent destabilization
Settings in all cases: K562; 2-18 h
[1] = biological target: CAMK2A (UniProt Q9UQM7)
[2] = biological target: CAMK2G (UniProt Q13555)
[3] = biological target: CDK10 (UniProt Q15131)
[4] = biological target: CDK2 (UniProt P24941)
[5] = biological target: CDK3 (UniProt Q00526)
[6] = biological target: CDK5 (UniProt Q00535)
[7] = biological target: CDK6 (UniProt Q00534)
[8] = biological target: CHEK2 (UniProt O96017)
[9] = biological target: CSF1R (UniProt P07333)
[10] = biological target: CSK (UniProt P41240)
[11] = biological target: CSNK1A1 (UniProt P48729)
[12] = biological target: CSNK1D (UniProt P48730)
[13] = biological target: DDR1 (UniProt Q08345)
[14] = biological target: DYRK1B (UniProt Q9Y463)
[15] = biological target: DYRK2 (UniProt Q92630)
[16] = biological target: EGFR (UniProt P00533)
[17] = biological target: EGFR_G719S (UniProt P00533)
[18] = biological target: EGFR_G719S_T790M (UniProt P00533)
[19] = biological target: EGFR_L718V (UniProt P00533)
[20] = biological target: EGFR_L858R (UniProt P00533)

Measured: number of time points

CN1CC[C@H](c2c(O)cc(O)c3c(=O)cc(-c4ccc(C(F)(F)F)cc4Cl)oc23)[C@H]1CO [(2S,3R)-Voruciclib (hydrochloride)] (2.5 µM)
2: [15] | [18]
0: [1] | [2] | [3] | [4] | [5] | [6] | [7] | [8] | [9] | [10] | [11] | [12] | [13] | [14] | [16] | [17] | [19] | [20]

CSc1ccc(CN2CCCC(Nc3ccc4[nH]ncc4c3)C2)cc1 (stereo not given) [Rho-Kinase-IN-1] (10 µM)
0: [1] | [2] | [3] | [4] | [5] | [6] | [7] | [8] | [9] | [10] | [11] | [12] | [13] | [14] | [15] | [16] | [17] | [18] | [19] | [20]

CCCNC(=O)c1cn2ncnc(Nc3cc(C(=O)NC4CC4)ccc3C)c2c1C (10 µM)
0: [1] | [2] | [3] | [4] | [5] | [6] | [7] | [8] | [9] | [10] | [11] | [12] | [13] | [14] | [15] | [16] | [17] | [18] | [19] | [20]

NCCCCCCNS(=O)(=O)c1cccc2c(Cl)cccc12 [W-7 (hydrochloride)] (10 µM)
0: [1] | [2] | [3] | [4] | [5] | [6] | [7] | [8] | [9] | [10] | [11] | [12] | [13] | [14] | [15] | [16] | [17] | [18] | [19] | [20]

N#C/C(=C(/N)Sc1ccc(N)cc1)c1ccccc1C(F)(F)F (10 µM)
0: [1] | [2] | [3] | [4] | [5] | [6] | [7] | [8] | [9] | [10] | [11] | [12] | [13] | [14] | [15] | [16] | [17] | [18] | [19] | [20]

Cc1ccc(-c2ncn(-c3ccc(Nc4nccc(-c5cccc(N6CCOCC6)c5)n4)cc3)n2)cn1 (10 µM)
0: [1] | [2] | [3] | [4] | [5] | [6] | [7] | [8] | [9] | [10] | [11] | [12] | [13] | [14] | [15] | [16] | [17] | [18] | [19] | [20]

CCc1cccc(CC)c1NC(=O)c1nn(C)c2c1CCc1cnc(Nc3ccc(C(=O)NC4CCN(C)CC4)cc3OC(F)(F)F)nc1-2 (2 µM)
0: [1] | [2] | [3] | [4] | [5] | [6] | [7] | [8] | [9] | [10] | [11] | [12] | [13] | [14] | [15] | [16] | [17] | [18] | [19] | [20]

CN(CC(=O)N(Cc1ccc(C2CCCCC2)cc1)c1ccc(C(=O)O)c(O)c1)S(=O)(=O)c1c(F)c(F)c(F)c(F)c1F (2.5 µM)
0: [1] | [2] | [3] | [4] | [5] | [6] | [7] | [8] | [9] | [10] | [11] | [12] | [13] | [14] | [15] | [16] | [17] | [18] | [19] | [20]

CN(C)Cc1cccc(N=C(c2ccccc2)c2c(O)[nH]c3cc(C(N)=O)ccc23)c1 (10 µM)
0: [1] | [2] | [3] | [4] | [5] | [6] | [7] | [8] | [9] | [10] | [11] | [12] | [13] | [14] | [15] | [16] | [17] | [18] | [19] | [20]

COc1cc(N2CCC(O)CC2)ccc1Nc1cc(Nc2ccccc2S(=O)(=O)C(C)C)c2cc[nH]c2n1 (10 µM)
0: [1] | [2] | [3] | [4] | [5] | [6] | [7] | [8] | [9] | [10] | [11] | [12] | [13] | [14] | [15] | [16] | [17] | [18] | [19] | [20]

CN(C)C(=O)c1ccc(S(=O)(=O)c2ccc(NC(=O)[C@@](C)(O)C(F)(F)F)c(Cl)c2)cc1 (10 µM)
0: [1] | [2] | [3] | [4] | [5] | [6] | [7] | [8] | [9] | [10] | [11] | [12] | [13] | [14] | [15] | [16] | [17] | [18] | [19] | [20]

Looked up by compound from the list above (2):
CN1CC[C@H](c2c(O)cc(O)c3c(=O)cc(-c4ccc(C(F)(F)F)cc4Cl)oc23)[C@H]1CO [(2S,3R)-Voruciclib (hydrochloride)] (2.5 µM)
2: [15] | [18]
0: [1] | [2] | [3] | [4] | [5] | [6] | [7] | [8] | [9] | [10] | [11] | [12] | [13] | [14] | [16] | [17] | [19] | [20]

NCCCCCCNS(=O)(=O)c1cccc2c(Cl)cccc12 [W-7 (hydrochloride)] (10 µM)
0: [1] | [2] | [3] | [4] | [5] | [6] | [7] | [8] | [9] | [10] | [11] | [12] | [13] | [14] | [15] | [16] | [17] | [18] | [19] | [20]

The list goes on:

OCCN(CCO)c1ccc(C(c2ccc(Cl)cc2)c2ccc(N(CCO)CCO)cc2)cc1 (10 µM)
0: [1] | [4] | [5] | [6] | [7] | [12] | [16] | [19] | [20]
1: [11] | [13] | [18]
3: [2] | [9] | [10] | [17]
4: [15]
2: [3] | [8] | [14]
